Measured values published in patent publication US4395400A, “Nonapeptide, a process for its preparation, an agent containing it and its use” (Hoechst Aktiengesellschaft, priority 1980, dated 1983).
Part of at least one peptide drawing is inferred or uncertain, most often the ends.

Key:
[1] = system: gonadoliberin-active; experiment: gonadoliberin activity of the peptide; conditions: glycine in position 6 replaced by D-α-aminoadipic acid δ-tert.-butyl ester
[2] = system: secretion of gonadotropic hormones; experiment: action on secretion of gonadotropic hormones; type: in vivo

CCNC(=O)[C@@H]1CCCN1C(=O)[C@H](CCCNC(=N)N)NC(=O)[C@H](CC(C)C)NC(=O)[C@@H](CCCC(=O)OC(C)(C)C)NC(=O)[C@H](Cc1ccc(O)cc1)NC(=O)[C@H](CO)NC(=O)[C@H](Cc1c[nH]c2ccccc12)NC(=O)[C@H](Cc1c[nH]cn1)NC(=O)[C@@H]1CCC(=O)N1 [nonapeptide]
gonadoliberin activity [1]: particularly good activity
effect at a high dosage, repeated daily ([2]; high dosage, repeated daily, contraceptive action): inhibitory effect on the secretion of gonadotropic hormones
action at a low dosage ([2]; low dosage, result of the secretion of gonadotropic hormones): fertility-increasing action
